The record followed here is US8841077B2, “Biomarkers for amyotrophic lateral sclerosis and methods using the same” (Massachusetts General Hospital, priority 2006, dated 2014).

Common to all, as to assay type: in vivo, human
Data set [1] can be described thus: Disease progression: plasma of 40 ALS subjects, random coefficient regression analysis over time (Table 16). The conditions noted are these: common slope of plasma metabolite level over month (0, 1, 6, 12), positive = level increased over time, negative = decreased.
Data set [2] is described as follows: Disease progression: plasma of ALS subjects, matched-pairs T-test month 1 vs month 12 (Table 18). The conditions noted are these: mean plasma level, month 1 vs month 12 after screening; positive = increase as disease progressed; 37 ALS patients.
Data set [3] in a line: Metabolomic profiling (GC-MS/LC-MS) of CSF samples, ALS subjects vs control subjects (Example 1; Tables 3, 4). The conditions noted are these: CSF.
The nature of data set [4]: Metabolomic profiling of blood plasma, 62 ALS subjects vs 62 control subjects (Example 3; Tables 7, 8). The conditions noted are these: blood plasma.
Where [5] appears, read: ALS mean level compared to control mean level, positive = increase in ALS.
The mark [6] stands for this setting: ALS mean level vs control mean level, 62 ALS vs 62 control subjects, analytical platform LC-MS.
Setting [7] is: ALS mean level vs control mean level, 62 ALS vs 62 control subjects, analytical platform GC-MS.

“And” between values parts separate entries of the source, which are not always exact repeats. Equal entries are not always repeated.

Take `O=S(=O)(O)Oc1c[nH]c2ccccc12`: the SLOPE in data set [1] is −0.009. In addition, in data set [2], the “% Change with disease progression” value is recorded as −11%.
In the same order, the values of `N[C@@H](CCC(=O)N[C@@H](Cc1ccccc1)C(=O)O)C(=O)O` are −0.017 and −22%.
In the same order, the values of `C[C@]12CC[C@H](OS(=O)(=O)[O-])CC1=CC[C@@H]1[C@@H]2CC[C@]2(C)C(=O)CC[C@@H]12.O.[Na+]` are −0.005 and −5%.
The corresponding values for `CCCCCCCC/C=C\CCCCCCCC(=O)OCC(O)CO` (racemic) are −0.018 and −13%.
Turning to `O=C(O)C(O)Cc1c[nH]c2ccccc12` (racemic) [DL-indole-3-lactic acid], the SLOPE in data set [1] is −0.002. Also, the “% Change with disease progression” value in data set [2] is −9%.
The corresponding values for `O=C(O)C1CCCCN1` (racemic) [DL-pipecolic acid] are −0.015 and −9%.
As for `OC[C@H]1OC[C@H](O)[C@@H](O)[C@@H]1O` [1,5-anhydro-D-glucitol], in data set [1], the SLOPE is listed as −0.005.
Take `OC[C@H]1OC[C@H](O)[C@@H](O)[C@@H]1O` [1-5-anhydro-D-glucitol]: in data set [2], the “% Change with disease progression” value is −8%.
Regarding `CNC(=N)N` [1-methyl-guanidine], in data set [1], the SLOPE was −0.006. For the same compound, the “% Change with disease progression” value in data set [2] was −5%.
With `CCC(O)C(=O)O` (stereo not drawn) [2-hydroxybutyric acid], the SLOPE in data set [1] was found to be 0.005. For the same compound, the “% Change with disease progression” value in data set [2] stood at 11%.
In the same order, the values of `Cn1cncc1C[C@H](N)C(=O)O` [3-methyl-L-histidine] are −0.013 and −15%.
Turning to `O=C(O)[C@H](O)COP(=O)(O)O` [3-phospho-d-glycerate], the SLOPE in data set [1] is −0.009. In data set [2], the “% Change with disease progression” value is listed as −19%.
For `OC[C@H]1O[C@@H](O[C@H]2[C@H](O)[C@H](O)C(O)O[C@@H]2CO)[C@H](O)[C@@H](O)[C@H]1O` (stereo partly drawn) [4-O-beta-galactopyranosyl-D-mannopyranose], the SLOPE in data set [1] is 0.004. For the same compound, the “% Change with disease progression” value in data set [2] amounted to 3%.
Consider `O=C(O)c1cc(O)c2ccccc2n1` [4-hydroxy-2-quinolinecarboxylic acid], for which the “% change in ALS” value worked out at 12% in data set [3] (ALS mean as compared to control mean, T-tests of ALS vs. Controls); 12% in data set [3] (ALS mean as compared to the control mean); 5% in data set [4] (setting [5]); 5% in data set [4] (setting [6]). In addition, the “Increase (+) or Decrease (−) in ALS” value in data set [3] (mean in ALS samples as compared to control samples) was “+”; in data set [3] (mean in ALS samples vs control samples, T-tests), “+”.
`O=C1CCNC(=O)N1` [5-6-dihydrouracil]: in data set [1], the SLOPE turned out to be 0.002. Besides, in data set [2], the “% Change with disease progression” value was found to be 1%.
In the same order, the values of `O=C1CC[C@@H](C(=O)O)N1` [5-oxoproline] are −0.003 and −7%.
The corresponding values for `O=C(O)C(O)Cc1ccc(O)cc1` (stereo not drawn) [(p-Hydroxyphenyl)lactic acid] are −0.012 and −15%.
In the same order, the values of `CC(=O)c1cnccn1` [Acetylpyrazine] are −0.002 and −4%.
In the case of `C[C@]12CCC(=O)C=C1CC[C@@H]1[C@@H]2[C@@H](O)C[C@]2(C=O)[C@@H](C(=O)CO)CC[C@@H]12` [Aldosterone], the SLOPE in data set [1] was determined as 0.000. In data set [2], the “% Change with disease progression” value is recorded as 10%.
For the compound `N=C(N)NCCC[C@H](N)C(=O)O` [Arginine], the SLOPE in data set [1] is on record as −0.019. In data set [2], the “% Change with disease progression” value was −12%.
The corresponding values for `O=C(O)CN(CCO)CCO` [Bicine] are 0.008 and 17%.
Regarding `O=C(O)CCCC[C@@H]1SC[C@@H]2NC(=O)N[C@@H]21` [Biotin], the SLOPE in data set [1] was −0.028. Further, in data set [2], the “% Change with disease progression” value is −32%.
The corresponding values for `CN(CC(=O)O)C(=N)N` [Creatine] are −0.011 and −1%.
In the same order, the values of `OC[C@H]1OC(O)[C@H](O)[C@@H](O)[C@@H]1O` (stereo partly drawn) [D-glucose] are 0.001 and −1%.
In the same order, the values of `O=C(O)C1(O)C[C@@H](O)C(O)[C@H](O)C1` (stereo partly drawn) [D-quinic acid] are −0.045 and −43%.
Regarding `O=C[C@H](O)[C@H](O)CO` [Eythrose], the SLOPE in data set [1] was −0.010.
As for `O=c1[nH]cnc2nc[nH]c12` [Hypoxanthine], the SLOPE in data set [1] came to 0.141. Moreover, the “% Change with disease progression” value in data set [2] was determined as 73%.
The corresponding values for `Nc1ccccc1C(=O)C[C@H](N)C(=O)O` [L-kynurenine] are −0.004 and −6%.
In the same order, the values of `CCCCC/C=C\C/C=C\CCCCCCCC(=O)O` [Linoleic acid] are 0.000 and 6%.
The corresponding values for `NCCCC[C@H](N)C(=O)O` [Lysine] are 0.011 and 12%.
Take `C[N+](C)(C)CCCC[C@H](N)C(=O)[O-]` [N-6-trimethyl-l-lysine]: the SLOPE in data set [1] is listed as −0.022. Besides, the “% Change with disease progression” value in data set [2] is reported as −22%.
`CC(=O)O[C@H](CC(=O)[O-])C[N+](C)(C)C.Cl` [O-acetyl-L-carnitine-hydrochloride]: the SLOPE in data set [1] is given as 0.027. Moreover, the “% Change with disease progression” value in data set [2] came to 39%.
Turning to `CCCCCCCC/C=C\CCCCCCCC(=O)O` [Oleic-Acid], the SLOPE in data set [1] was determined as 0.019. Moreover, the “% Change with disease progression” value in data set [2] turned out to be 31%.
Turning to `OC[C@H]1O[C@@H](O[C@H]2[C@H](O)[C@H](O)C(O)O[C@@H]2CO)[C@H](O)[C@@H](O)[C@H]1O` (stereo partly drawn) [Phosphate], in data set [1], the SLOPE turned out to be 0.002. Further, the “% Change with disease progression” value in data set [2] is listed as 2%.
In the case of `Cc1cc2nc3c(=O)[nH]c(=O)nc-3n(C[C@H](O)[C@H](O)[C@H](O)CO)c2cc1C` [Riboflavine], in data set [1], the SLOPE was −0.024. Moreover, in data set [2], the “% Change with disease progression” value was −24%.
Turning to `Cn1cnc2c1c(=O)[nH]c(=O)n2C` [Theobromine], in data set [1], the SLOPE is reported as 0.011. Besides, the “% Change with disease progression” value in data set [2] is on record as 2%.
Regarding `CCCCCCCC/C=C/CCCCCCCC(=O)O` [elaidic acid], the “% change in ALS” value in data set [4] (setting [5]) and in data set [4] (setting [7]) was 9% each time.
For the compound `CCOC(=O)Cc1c[nH]c2ccccc12` [ethyl-3-indoleacetate], the “% change in ALS” value in data set [4] (setting [5]) and in data set [4] (setting [7]) was 16% in each case.
With `N[C@@H](CCC(=O)N[C@@H](Cc1ccc(O)cc1)C(=O)O)C(=O)O` [gamma-L-glutamyl-L-tyrosine], the SLOPE in data set [1] is −0.019. Also, the “% Change with disease progression” value in data set [2] is recorded as −22%.
The corresponding values for `CC(C)C[C@H](NC(=O)CC[C@H](N)C(=O)O)C(=O)O` [gamma-glu-leu] are −0.015 and −16%.
Turning to `O=C1O[C@H]([C@H](O)CO)[C@H](O)[C@H]1O` [glucono-gamma-lactone], the “% change in ALS” value in data set [4] (setting [5]) and in data set [4] (setting [7]) was 7% throughout.
For `O=C[C@H](O)[C@@H](O)[C@H](O)[C@H](O)COP(=O)(O)O` [glucose-6-phosphate], the “% change in ALS” value in data set [4] (setting [5]) was determined as 0%.
On to `CC(CCC(=O)NCC(=O)O)C1CCC2C3C(O)CC4CC(O)CCC4(C)C3CCC12C` (stereo not drawn) [glycochenodeoxycholic acid], for which the SLOPE in data set [1] was −0.017. In data set [2], the “% Change with disease progression” value was −33%.
In the same order, the values of `C[C@H](CCC(=O)NCC(=O)O)[C@H]1CC[C@H]2[C@@H]3[C@H](O)C[C@@H]4C[C@H](O)CC[C@]4(C)[C@H]3C[C@H](O)[C@]12C` [glycocholic acid] are 0.015 and −16%.
Regarding `NC(N)=NCC(=O)O` [guanidineacetic acid], the “% change in ALS” value in data set [4] (setting [5]) and in data set [4] (setting [6]) was −5% throughout.
For the compound `O=C1O[C@@H]([C@H](O)CO)[C@@H](O)[C@H]1O` [gulono-1-4-lactone], the “% change in ALS” value in data set [4] (setting [5]) and in data set [4] (setting [7]) was −3% each time.
As to `CCCCCCCCCCCCCCCCC(=O)O` [heptadecanoic acid], the SLOPE in data set [1] is recorded as −0.005. In data set [2], the “% Change with disease progression” value was −1%.
Turning to `O=P(O)(O)OC1[C@H](O)[C@H](O)C(O)[C@H](O)[C@H]1O` (stereo partly drawn) [inositol-1-phosphate], in data set [1], the SLOPE was −0.026. Besides, the “% Change with disease progression” value in data set [2] was −25%.
Regarding `CCCCCCCCCCCC(=O)O` [n-dodecanoate], the “% change in ALS” value in data set [4] (setting [5]) and in data set [4] (setting [7]) was −13% each time.
On to `CC(=O)Nc1ccc(O[C@@H]2O[C@H](C(=O)O)[C@@H](O)[C@H](O)[C@H]2O)cc1` [p-acetamidophenyl-beta-D-gluguronide], for which the “% change in ALS” value in data set [4] (setting [5]) and in data set [4] (setting [6]) was 137% each time.
With `Cc1ncc(COP(=O)(O)O)c(CN)c1O` [pyridoxamine-phosphate], the “% change in ALS” value in data set [4] (setting [5]) and in data set [4] (setting [6]) was 12% throughout.
In the case of `O=C(O)C(O)C(O)C(=O)O` (stereo not drawn) [tartaric acid], the “% change in ALS” value in data set [4] (setting [5]) and in data set [4] (setting [6]) was −15% throughout.
For Lactate, the “% change in ALS” value was 3% and −4% in data set [4] (setting [5]); 3% in data set [4] (setting [7]).
With Phosphate, the “% change in ALS” value in data set [4] (setting [5]) and in data set [4] (setting [7]) was 4% in each case.
lactate: the “% change in ALS” value in data set [4] (setting [6]) is recorded as −4%.
Consider vitamin-B6, for which the “% change in ALS” value in data set [4] (setting [5]) and in data set [4] (setting [7]) was 5% each time.
